From publication PMC8617943
No constants are given. Whether binding was seen depends on the method and setting. Binding seen in cells or lysates may run through a third protein. Some entries that bind do so weakly or less than the wild type.

Sequences of proteins named here, by UniProt entry; tags and fusion partners are left off.
UniProt P10415: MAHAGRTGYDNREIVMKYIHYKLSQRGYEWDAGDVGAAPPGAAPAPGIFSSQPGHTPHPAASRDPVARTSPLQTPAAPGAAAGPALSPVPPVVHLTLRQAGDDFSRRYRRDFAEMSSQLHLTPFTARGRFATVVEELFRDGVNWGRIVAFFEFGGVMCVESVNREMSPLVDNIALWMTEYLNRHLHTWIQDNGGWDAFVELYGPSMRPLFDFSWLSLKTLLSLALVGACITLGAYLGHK
UniProt Q9NT62: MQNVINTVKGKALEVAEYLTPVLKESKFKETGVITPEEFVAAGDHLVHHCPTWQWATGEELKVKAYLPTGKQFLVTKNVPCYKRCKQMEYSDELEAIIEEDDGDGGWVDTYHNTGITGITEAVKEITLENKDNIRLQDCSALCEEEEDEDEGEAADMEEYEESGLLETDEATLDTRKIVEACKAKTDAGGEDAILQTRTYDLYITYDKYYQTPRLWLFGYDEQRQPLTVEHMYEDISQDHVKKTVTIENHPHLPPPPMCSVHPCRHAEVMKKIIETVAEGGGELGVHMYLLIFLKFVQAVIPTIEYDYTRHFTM
UniProt O94817: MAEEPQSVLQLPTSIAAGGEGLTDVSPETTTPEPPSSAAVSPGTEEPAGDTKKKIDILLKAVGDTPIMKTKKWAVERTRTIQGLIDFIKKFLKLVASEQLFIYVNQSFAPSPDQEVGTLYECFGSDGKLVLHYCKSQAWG
UniProt Q676U5: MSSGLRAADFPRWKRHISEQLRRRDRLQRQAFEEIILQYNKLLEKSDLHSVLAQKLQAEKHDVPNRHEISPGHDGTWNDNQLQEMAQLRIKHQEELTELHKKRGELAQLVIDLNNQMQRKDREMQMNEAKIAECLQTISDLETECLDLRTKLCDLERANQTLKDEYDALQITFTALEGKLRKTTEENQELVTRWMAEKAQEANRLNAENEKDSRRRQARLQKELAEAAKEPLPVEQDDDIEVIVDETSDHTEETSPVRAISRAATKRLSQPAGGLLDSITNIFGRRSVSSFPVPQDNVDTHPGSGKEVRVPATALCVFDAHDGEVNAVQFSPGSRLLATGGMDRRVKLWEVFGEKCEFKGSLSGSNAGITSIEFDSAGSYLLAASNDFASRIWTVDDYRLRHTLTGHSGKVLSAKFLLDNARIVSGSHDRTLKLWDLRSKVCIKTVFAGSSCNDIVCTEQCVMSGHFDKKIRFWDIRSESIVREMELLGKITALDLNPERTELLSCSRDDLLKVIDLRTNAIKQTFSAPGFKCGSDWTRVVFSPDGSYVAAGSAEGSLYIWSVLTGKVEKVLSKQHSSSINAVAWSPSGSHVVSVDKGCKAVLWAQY
UniProt P09429: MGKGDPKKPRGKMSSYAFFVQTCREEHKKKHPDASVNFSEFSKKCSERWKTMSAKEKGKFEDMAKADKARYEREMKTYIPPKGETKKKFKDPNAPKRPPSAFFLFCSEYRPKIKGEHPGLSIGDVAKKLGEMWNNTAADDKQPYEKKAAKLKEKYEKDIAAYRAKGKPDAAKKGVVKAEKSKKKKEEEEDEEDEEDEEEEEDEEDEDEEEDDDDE

What was measured:
[1] = molecular target: Beclin 1 (human (endogenous in Ca Ski)) (UniProt Q14457); test: co-IP; endogenous proteins in Ca Ski whole cell lysates precleared with Protein A/G PLUS-Agarose; IP with anti-Bcl-2 or anti-Beclin 1 monoclonal antibody or control rabbit IgG, 2 h at room temperature, captured on protein A/G agarose, western blot; cells untreated or treated with RCE-4 8 μmol/L for 6, 12 and 24 h, with or without ATG 4B siRNA
[2] = molecular target: Bcl-2 (human (endogenous in Ca Ski)) (UniProt P10415); test: as above

Substance	binding [1]	binding [2]
ATG 3 (from UniProt Q9NT62 1-314)	binds	
ATG 12 (from UniProt O94817 1-140)	binds	binds
ATG 14 (from UniProt Q6ZNE5 1-492)		binds
ATG 16L1 (from UniProt Q676U5 1-607)	binds	binds
Bcl-2 (from UniProt P10415 1-239)	binds	
Beclin 1 (from UniProt Q14457 1-450)		binds
HMGB-1 (from UniProt P09429 1-215)	binds	
